Assay results reported in publication PMC5898902.

Amino acid sequences for entries named in this document (tags omitted). Residues count along the entry.
UniProt P25705, residues 44-553: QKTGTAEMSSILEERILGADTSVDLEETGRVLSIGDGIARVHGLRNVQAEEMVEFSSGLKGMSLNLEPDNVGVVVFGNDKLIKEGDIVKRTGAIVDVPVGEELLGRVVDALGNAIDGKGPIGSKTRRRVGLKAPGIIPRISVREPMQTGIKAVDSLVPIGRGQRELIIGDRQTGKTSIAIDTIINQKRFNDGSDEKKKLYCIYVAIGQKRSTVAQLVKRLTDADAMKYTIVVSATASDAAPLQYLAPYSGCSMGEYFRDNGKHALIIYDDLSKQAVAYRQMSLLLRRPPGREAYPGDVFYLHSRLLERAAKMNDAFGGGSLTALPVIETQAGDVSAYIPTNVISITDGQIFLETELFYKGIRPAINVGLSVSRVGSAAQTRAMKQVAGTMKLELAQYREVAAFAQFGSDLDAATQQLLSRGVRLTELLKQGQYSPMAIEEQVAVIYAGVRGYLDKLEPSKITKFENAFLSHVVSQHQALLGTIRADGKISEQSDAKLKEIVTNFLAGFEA

Biological target: GRA8 T220A mutant (GST fusion, expressed in 293T cells) (Toxoplasma gondii) (UniProt S8F761)
Test: pull-down; 293T cells 48 h after co-transfection of mammalian GST fusions (GST-GRA8 constructs with V5-ATP5A1; GST-ATP5A1 constructs with Flag-GRA8); GST pull down, IB with αV5 or αFlag

V5-ATP5A1 (full length), expressed in 293T cells (from UniProt P25705 44-553)
binding: binds

Results are given in words; binding and its absence hold for the method and conditions named. Binding seen in cells or lysates may run through a third protein. A result given as binding can be weak or reduced; the word gives no strength.
